Experimental data taken from PMC5740495.

Amino acid sequences for entries named in this document (tags omitted).
UniProt O00410: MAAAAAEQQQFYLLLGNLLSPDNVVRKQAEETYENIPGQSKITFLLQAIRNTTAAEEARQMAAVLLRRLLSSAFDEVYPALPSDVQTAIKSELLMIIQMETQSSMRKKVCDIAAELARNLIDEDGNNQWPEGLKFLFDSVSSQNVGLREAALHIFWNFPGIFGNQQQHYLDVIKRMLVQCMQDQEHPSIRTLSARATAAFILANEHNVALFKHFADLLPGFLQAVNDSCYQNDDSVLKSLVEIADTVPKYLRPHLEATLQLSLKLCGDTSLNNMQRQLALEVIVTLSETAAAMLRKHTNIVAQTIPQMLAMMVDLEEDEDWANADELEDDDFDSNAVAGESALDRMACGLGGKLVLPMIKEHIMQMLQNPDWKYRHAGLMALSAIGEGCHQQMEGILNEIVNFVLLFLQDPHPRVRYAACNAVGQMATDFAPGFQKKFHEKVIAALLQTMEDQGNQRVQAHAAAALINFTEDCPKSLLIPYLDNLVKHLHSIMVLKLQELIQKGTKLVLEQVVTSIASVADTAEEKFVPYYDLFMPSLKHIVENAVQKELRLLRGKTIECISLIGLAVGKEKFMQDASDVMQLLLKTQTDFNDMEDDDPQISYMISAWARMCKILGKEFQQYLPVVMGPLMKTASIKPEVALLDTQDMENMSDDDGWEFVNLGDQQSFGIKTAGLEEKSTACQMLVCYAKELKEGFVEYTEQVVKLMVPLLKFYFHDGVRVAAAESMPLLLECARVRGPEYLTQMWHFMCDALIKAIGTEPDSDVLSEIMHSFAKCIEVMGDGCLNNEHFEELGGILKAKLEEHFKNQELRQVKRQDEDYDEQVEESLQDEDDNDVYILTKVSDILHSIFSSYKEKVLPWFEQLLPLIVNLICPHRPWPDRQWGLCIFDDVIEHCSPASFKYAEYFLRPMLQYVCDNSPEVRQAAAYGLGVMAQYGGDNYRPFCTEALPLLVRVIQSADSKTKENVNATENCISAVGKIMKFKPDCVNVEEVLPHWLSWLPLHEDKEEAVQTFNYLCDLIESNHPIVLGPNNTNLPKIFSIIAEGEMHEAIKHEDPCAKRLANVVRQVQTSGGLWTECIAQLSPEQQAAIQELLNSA
UniProt P55060: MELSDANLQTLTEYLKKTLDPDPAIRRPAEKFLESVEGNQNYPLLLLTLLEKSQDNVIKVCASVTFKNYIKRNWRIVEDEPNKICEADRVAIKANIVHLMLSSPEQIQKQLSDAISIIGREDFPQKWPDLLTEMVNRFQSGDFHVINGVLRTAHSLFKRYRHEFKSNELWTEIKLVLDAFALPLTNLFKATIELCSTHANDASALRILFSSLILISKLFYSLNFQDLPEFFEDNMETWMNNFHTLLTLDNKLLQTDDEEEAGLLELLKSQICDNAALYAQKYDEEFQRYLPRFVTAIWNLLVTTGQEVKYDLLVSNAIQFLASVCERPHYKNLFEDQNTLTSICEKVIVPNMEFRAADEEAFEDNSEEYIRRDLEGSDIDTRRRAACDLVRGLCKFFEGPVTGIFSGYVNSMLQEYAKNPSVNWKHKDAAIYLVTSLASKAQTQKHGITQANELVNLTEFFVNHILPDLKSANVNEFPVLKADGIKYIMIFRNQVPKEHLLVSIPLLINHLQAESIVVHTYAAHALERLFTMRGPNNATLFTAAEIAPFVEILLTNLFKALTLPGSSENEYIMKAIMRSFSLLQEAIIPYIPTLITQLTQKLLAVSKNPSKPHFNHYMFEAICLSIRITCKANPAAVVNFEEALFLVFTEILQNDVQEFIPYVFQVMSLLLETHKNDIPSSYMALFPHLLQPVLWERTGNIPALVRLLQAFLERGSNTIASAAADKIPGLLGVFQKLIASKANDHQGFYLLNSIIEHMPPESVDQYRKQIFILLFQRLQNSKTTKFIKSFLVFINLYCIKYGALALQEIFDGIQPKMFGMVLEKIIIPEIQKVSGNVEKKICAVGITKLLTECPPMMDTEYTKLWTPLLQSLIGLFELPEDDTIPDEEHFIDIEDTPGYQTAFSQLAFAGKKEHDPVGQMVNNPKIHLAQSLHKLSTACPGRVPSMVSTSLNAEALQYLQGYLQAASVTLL
UniProt P52294: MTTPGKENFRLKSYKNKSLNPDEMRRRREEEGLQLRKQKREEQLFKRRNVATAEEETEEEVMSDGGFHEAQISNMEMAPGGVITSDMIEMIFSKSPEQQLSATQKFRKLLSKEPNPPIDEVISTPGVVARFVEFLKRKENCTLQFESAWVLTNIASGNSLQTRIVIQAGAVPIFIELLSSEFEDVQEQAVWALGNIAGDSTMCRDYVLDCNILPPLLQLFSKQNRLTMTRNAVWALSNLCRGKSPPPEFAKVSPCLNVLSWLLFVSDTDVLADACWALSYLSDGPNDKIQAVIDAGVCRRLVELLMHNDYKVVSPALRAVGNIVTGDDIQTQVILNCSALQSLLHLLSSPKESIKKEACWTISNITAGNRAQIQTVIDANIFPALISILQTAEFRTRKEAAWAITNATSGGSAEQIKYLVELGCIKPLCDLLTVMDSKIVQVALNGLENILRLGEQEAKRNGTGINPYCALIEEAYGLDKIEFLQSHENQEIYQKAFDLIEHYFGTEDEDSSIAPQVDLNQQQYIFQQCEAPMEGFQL
UniProt Q8TEX9: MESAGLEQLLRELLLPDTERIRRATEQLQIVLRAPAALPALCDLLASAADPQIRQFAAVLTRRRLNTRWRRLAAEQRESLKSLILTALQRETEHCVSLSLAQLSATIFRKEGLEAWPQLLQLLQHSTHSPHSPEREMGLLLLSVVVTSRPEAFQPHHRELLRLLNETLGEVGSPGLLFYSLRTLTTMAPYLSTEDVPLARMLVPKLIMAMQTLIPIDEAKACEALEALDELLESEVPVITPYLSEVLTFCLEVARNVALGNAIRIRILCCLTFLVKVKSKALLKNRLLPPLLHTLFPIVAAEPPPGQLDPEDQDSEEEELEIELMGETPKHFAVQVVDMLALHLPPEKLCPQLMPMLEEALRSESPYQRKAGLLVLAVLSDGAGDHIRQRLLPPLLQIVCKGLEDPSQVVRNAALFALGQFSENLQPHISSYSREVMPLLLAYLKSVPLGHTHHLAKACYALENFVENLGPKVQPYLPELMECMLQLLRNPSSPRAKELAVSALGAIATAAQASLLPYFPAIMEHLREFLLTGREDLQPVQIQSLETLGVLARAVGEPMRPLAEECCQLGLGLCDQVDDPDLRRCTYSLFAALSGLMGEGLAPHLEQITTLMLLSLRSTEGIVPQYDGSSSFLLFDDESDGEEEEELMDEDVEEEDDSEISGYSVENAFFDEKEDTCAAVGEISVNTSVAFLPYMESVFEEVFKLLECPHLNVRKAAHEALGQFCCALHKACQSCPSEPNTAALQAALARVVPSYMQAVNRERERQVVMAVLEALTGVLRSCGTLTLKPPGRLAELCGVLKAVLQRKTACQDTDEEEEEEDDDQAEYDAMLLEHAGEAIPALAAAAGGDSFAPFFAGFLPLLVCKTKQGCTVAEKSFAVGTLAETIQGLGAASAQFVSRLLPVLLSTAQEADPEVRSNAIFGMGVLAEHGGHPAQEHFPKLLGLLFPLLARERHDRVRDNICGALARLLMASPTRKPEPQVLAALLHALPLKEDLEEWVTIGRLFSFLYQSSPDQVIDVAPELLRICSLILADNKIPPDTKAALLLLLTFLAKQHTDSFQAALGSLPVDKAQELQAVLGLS
UniProt P49790: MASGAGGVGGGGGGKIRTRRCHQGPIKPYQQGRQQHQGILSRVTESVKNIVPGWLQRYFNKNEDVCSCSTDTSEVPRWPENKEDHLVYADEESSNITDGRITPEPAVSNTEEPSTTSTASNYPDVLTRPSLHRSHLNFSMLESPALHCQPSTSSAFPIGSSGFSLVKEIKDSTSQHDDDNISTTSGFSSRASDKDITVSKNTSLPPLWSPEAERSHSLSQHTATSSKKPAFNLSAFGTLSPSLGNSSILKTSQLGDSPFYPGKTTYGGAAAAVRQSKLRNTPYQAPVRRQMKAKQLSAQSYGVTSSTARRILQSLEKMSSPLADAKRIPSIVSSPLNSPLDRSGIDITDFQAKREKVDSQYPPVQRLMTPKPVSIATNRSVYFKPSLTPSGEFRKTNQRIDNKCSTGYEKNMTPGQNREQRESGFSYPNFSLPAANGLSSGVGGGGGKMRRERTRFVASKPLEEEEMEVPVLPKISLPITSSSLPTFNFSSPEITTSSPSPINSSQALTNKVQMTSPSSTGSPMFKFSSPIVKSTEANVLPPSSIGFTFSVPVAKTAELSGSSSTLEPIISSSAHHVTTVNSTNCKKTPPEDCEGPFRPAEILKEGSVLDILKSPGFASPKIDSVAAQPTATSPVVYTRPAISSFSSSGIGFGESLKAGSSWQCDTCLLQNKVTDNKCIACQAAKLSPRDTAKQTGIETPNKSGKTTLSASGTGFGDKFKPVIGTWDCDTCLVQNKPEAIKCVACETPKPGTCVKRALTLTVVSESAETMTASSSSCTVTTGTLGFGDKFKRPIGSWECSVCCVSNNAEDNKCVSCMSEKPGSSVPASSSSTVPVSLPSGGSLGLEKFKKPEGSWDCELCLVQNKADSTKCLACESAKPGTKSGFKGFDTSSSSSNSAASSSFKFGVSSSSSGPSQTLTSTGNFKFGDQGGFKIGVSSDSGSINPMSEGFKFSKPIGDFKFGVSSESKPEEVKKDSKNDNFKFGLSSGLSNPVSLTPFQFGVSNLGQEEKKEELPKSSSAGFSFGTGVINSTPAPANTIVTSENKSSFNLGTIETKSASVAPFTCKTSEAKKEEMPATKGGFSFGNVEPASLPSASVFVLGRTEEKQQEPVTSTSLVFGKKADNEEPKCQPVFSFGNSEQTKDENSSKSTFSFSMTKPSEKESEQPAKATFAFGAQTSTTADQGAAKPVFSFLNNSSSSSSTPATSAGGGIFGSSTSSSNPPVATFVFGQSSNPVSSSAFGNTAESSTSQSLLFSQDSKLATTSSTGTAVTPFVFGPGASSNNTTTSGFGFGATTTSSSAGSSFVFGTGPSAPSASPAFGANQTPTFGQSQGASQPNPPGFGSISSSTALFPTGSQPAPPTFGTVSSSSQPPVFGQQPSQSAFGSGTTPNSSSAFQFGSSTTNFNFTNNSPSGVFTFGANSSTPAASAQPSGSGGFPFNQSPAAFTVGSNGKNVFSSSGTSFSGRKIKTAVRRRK

Key:
Assay in all cases: proximity labelling; BioID, large-scale, direct identification of biotinylated peptides: same NTR-BirA* lines; biotinylated peptides eluted from streptavidin beads with 80% ACN, 20% TFA after the on-bead digest, MS
IPO5 (human) = IPO5 (human) (UniProt O00410)
XPO2 (human) = XPO2 (human) (UniProt P55060)
XPO7 (human) = target: T1, XPO7 (human) (UniProt Q9UIA9)
T1 sequence: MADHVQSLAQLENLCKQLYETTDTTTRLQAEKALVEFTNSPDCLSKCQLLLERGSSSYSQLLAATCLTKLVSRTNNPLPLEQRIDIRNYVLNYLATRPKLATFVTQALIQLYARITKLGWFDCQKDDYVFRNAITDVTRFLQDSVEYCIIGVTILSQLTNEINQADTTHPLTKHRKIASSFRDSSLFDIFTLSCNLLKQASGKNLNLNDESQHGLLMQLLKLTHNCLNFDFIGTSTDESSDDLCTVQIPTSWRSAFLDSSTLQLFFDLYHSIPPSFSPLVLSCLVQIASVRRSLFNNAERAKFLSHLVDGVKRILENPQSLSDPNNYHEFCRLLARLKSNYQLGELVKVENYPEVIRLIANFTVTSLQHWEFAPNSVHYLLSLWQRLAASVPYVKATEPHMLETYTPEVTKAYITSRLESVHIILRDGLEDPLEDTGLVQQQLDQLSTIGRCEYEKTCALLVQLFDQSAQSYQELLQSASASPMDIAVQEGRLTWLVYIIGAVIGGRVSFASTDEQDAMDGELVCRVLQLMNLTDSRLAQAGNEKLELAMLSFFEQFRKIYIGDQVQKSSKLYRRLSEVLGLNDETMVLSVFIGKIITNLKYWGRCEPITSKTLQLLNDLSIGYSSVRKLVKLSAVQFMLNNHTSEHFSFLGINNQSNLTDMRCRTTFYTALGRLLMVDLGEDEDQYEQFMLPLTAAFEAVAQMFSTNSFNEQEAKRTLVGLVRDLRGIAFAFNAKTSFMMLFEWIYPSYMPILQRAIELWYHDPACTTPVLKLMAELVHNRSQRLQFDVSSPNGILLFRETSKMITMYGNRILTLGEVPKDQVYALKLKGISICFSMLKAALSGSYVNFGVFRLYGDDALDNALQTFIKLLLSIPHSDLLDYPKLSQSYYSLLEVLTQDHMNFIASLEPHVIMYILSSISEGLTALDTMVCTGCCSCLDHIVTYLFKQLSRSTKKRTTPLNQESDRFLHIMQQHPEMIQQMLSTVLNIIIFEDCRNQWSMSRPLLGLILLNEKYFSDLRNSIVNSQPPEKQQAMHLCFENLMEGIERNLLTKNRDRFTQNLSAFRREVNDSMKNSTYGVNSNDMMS

NXT2 (human) = target: T2, NXT2 (human) (UniProt Q9NPJ8)
T2 sequence: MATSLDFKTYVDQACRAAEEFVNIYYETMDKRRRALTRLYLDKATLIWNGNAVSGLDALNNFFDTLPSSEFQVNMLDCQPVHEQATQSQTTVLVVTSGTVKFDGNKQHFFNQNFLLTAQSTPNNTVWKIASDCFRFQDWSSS

IMA5 (human) = IMA5 (human) (UniProt P52294)
IPO4 (human) = IPO4 (human) (UniProt Q8TEX9)
TNPO2 (human) = target: T3, TNPO2 (human) (UniProt O14787)
T3 sequence: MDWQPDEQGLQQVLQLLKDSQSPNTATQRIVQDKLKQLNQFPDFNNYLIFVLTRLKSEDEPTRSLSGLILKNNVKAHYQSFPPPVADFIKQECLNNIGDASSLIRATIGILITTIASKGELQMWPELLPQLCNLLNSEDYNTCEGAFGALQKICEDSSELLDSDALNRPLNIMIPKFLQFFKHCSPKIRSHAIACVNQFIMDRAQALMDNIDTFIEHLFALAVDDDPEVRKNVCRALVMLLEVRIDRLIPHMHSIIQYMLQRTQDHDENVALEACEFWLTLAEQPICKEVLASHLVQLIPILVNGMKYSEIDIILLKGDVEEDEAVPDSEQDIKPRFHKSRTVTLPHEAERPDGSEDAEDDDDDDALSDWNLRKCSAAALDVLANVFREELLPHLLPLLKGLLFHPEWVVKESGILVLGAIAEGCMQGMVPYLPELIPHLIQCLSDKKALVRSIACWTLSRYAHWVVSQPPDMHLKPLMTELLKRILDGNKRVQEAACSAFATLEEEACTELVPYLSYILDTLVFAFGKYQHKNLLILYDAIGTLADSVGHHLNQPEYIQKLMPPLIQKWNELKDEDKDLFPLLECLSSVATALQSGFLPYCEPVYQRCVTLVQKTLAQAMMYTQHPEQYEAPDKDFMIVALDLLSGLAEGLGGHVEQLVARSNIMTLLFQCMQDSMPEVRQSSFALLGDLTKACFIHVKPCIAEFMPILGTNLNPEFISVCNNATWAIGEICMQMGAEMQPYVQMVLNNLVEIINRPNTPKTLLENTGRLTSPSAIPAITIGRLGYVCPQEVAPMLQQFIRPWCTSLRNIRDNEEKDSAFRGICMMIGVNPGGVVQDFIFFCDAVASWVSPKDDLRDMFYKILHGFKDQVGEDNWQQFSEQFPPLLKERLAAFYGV

binding (IPO5 (human)): binds weakly
binding (XPO2 (human)): binds
binding (XPO7 (human)): binds
binding (NXT2 (human)): binds
binding (IMA5 (human)): binds
binding (IPO4 (human)): binds weakly
binding (TNPO2 (human)): binds
Substance: NUP153 (from UniProt P49790 1-1475)

No constants are given. Whether binding was seen depends on the method and setting. In cells and extracts the contact can be indirect. Here binding means that the protein was enriched with, or labelled near, the bait; the list need not be complete.
